{"sequences": {"note": "Protein sequences, listed by entry. Tags and fused reporters are not part of them.", "UniProt Q0JBA9, entry or part of it": "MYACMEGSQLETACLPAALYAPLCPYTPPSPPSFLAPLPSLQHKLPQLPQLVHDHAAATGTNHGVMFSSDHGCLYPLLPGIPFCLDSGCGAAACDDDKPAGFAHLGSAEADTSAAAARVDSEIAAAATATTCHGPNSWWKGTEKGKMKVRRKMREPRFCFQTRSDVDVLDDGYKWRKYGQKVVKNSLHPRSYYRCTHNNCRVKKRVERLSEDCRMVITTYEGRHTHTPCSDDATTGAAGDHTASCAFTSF"}, "source": "paper PMC7819943", "about": "“Rice protein-binding microarrays: a tool to detect cis-acting elements near promoter regions in rice”", "note": "Some of the results follow.", "data": [{"target": "OsWRKY34 (Oryza sativa, UniProt Q0JBA9 1-250)", "experiment": "protein-binding microarray (RPBM); PBS, 2% BSA, 51.3 ng/ul salmon testes DNA, 50 uM zinc acetate, 200 nM TF, 25 C, 1 h; high values mean tight binding", "details": "protein: recombinant; tags: N-terminal polyhistidine and DsRed monomer fusion (pET32a); label: CyDye5-dUTP incorporated in the synthesized complementary strand; 3' TTTTT single-stranded linker to array surface; dsDNA, one strand shown", "method_in_brief": "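The binding signal is fluorescence intensity per feature, in arbitrary units, read on an Axon 4000B scanner. Polyhistidine- and DsRed-tagged transcription factors (N-terminal fusions) from E. coli BL21-CodonPlus were purified on Ni–NTA and applied at 200 nM for 1 h at 25 °C to a double-stranded, BSA-blocked custom Agilent array in buffer with 50 µM zinc acetate.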", "values": [{"sequence": "GGGGATGGGGTGAATTTAAATCTCCCTGCAAAACCATTTTCGGAGTCACCTAGTGCAG", "binding signal": "9550 fluorescence intensity (a.u.)"}, {"sequence": "ACCTATCTTTCTCTATTTTTTATTTTTTTAGCGAAACACACGGAGTCACCTAGTGCAG", "binding signal": "9780 fluorescence intensity (a.u.)"}, {"sequence": "GCAGTACCATTAGCCCACCCACCTACGGCCGCCGGCGCTGCGGAGTCACCTAGTGCAG", "binding signal": "8180 fluorescence intensity (a.u.)"}, {"sequence": "CCTTTCGCCGTGTTCGGTTGTTGCTGGAGCGGATTTGATTCGGAGTCACCTAGTGCAG", "binding signal": "8650 fluorescence intensity (a.u.)"}, {"sequence": "CATCTCGCATTTAATTTCTCCACATATTTTTTCTTAATTACGGAGTCACCTAGTGCAG", "binding signal": "9220 fluorescence intensity (a.u.)"}, {"sequence": "GTGAGGGCTGGGCTACCATGGGTATGGGTATGGGTATGGGCGGAGTCACCTAGTGCAG", "binding signal": "11100 fluorescence intensity (a.u.)"}, {"sequence": "CCCACGTTCCTTTAACTTTGCATCAGAGGAGCTCCGTCCACGGAGTCACCTAGTGCAG", "binding signal": "9240 fluorescence intensity (a.u.)"}, {"sequence": "CCACCACTCCGTCGCCGTGGTCGCGCCCGCGCCTACTCCGCGGAGTCACCTAGTGCAG", "binding signal": "8830 fluorescence intensity (a.u.)"}, {"sequence": "CTCATGTGACATGCCACATAGGAGTTGACTCATTTTCTTTCGGAGTCACCTAGTGCAG", "binding signal": "9800 fluorescence intensity (a.u.)"}, {"sequence": "GACCTCATCCGGCGCCAGATCGCCCCGCCGCCAAACCAATCGGAGTCACCTAGTGCAG", "binding signal": "8360 fluorescence intensity (a.u.)"}, {"sequence": "TTTCATTGTTTCCGCAGACACGCTTTTCAAACTACTAAACCGGAGTCACCTAGTGCAG", "binding signal": "8080 fluorescence intensity (a.u.)"}, {"sequence": "ACCACTGCCCATCGCCGTCGCTCTTGTCGCCATCGCATCCCGGAGTCACCTAGTGCAG", "binding signal": "11300 fluorescence intensity (a.u.)"}, {"sequence": "TCAGCCATCTCTCCACAGCCTAATCCTTATTTTATTCCTACGGAGTCACCTAGTGCAG", "binding signal": "8720 fluorescence intensity (a.u.)"}, {"sequence": "TCATCGGCATCTTCTTACGCCACCGTCGCCGCATCCACATCGGAGTCACCTAGTGCAG", "binding signal": "13700 fluorescence intensity (a.u.)"}, {"sequence": "TGGCTCAAGCACACTACATATATATCCTTGTTTTTTCAACCGGAGTCACCTAGTGCAG", "binding signal": "8260 fluorescence intensity (a.u.)"}, {"sequence": "GAGAGTTTTTACATTTAACCCATTTTCTACTTTTTATTTCCGGAGTCACCTAGTGCAG", "binding signal": "9880 fluorescence intensity (a.u.)"}, {"sequence": "TTCTTTTACCATACTTCGATGGAAATTGTCTCGCTATTTCCGGAGTCACCTAGTGCAG", "binding signal": "8960 fluorescence intensity (a.u.)"}, {"sequence": "TCAGTATTATCATATATCGGCACCAATGCAAGTTGCTTCCCGGAGTCACCTAGTGCAG", "binding signal": "8310 fluorescence intensity (a.u.)"}, {"sequence": "CATGATTAATACTTTATGCGTGACTTACCTTTTTATTTTTCGGAGTCACCTAGTGCAG", "binding signal": "12300 fluorescence intensity (a.u.)"}, {"sequence": "TTAAGGTATGCTCCATGTTGCTTATTCCTTACTTAAATACCGGAGTCACCTAGTGCAG", "binding signal": "9130 fluorescence intensity (a.u.)"}, {"sequence": "CTTCCGTCAATTCTCGATCGTTTTCCGTCCGCCTTGATCGCGGAGTCACCTAGTGCAG", "binding signal": "10200 fluorescence intensity (a.u.)"}, {"sequence": "GTCTCTTGACCAGTTTTCTCAGTCTATCACGCAAAAATTACGGAGTCACCTAGTGCAG", "binding signal": "9080 fluorescence intensity (a.u.)"}, {"sequence": "ACTTTTATCACTGTCCATCTCCTCTATGCCGTGGACATGACGGAGTCACCTAGTGCAG", "binding signal": "8500 fluorescence intensity (a.u.)"}, {"sequence": "TAGTCGCTGTTCCAGTCTTCGAAATATACACTATATTATCCGGAGTCACCTAGTGCAG", "binding signal": "9980 fluorescence intensity (a.u.)"}, {"sequence": "TGTTTGACACCATTGACTTTTTAGTATGTGTTTGACCATTCGGAGTCACCTAGTGCAG", "binding signal": "13200 fluorescence intensity (a.u.)"}, {"sequence": "AGTTGTCCATTATTCAGTGCCTTGTAACAGGGTAATATTCCGGAGTCACCTAGTGCAG", "binding signal": "10600 fluorescence intensity (a.u.)"}, {"sequence": "GTTCGTATCAGCACCTGCACCTGCACCGAGTTCTGTGATCCGGAGTCACCTAGTGCAG", "binding signal": "8740 fluorescence intensity (a.u.)"}, {"sequence": "TCATCCTCTTGGTAGCCCTCGTTTAGGCGGCGTTGCTGTCCGGAGTCACCTAGTGCAG", "binding signal": "8070 fluorescence intensity (a.u.)"}, {"sequence": "CCCACACACGTACGCGCCATATTGTCATACGATCATCACCCGGAGTCACCTAGTGCAG", "binding signal": "8870 fluorescence intensity (a.u.)"}, {"sequence": "CTTTTTTTAACATGTTTGATCGTCTTATTTAAAAAATTTACGGAGTCACCTAGTGCAG", "binding signal": "9130 fluorescence intensity (a.u.)"}, {"sequence": "CGTATGCTCCTTAGGTGATACTATGTCCCTATTTGCTTCACGGAGTCACCTAGTGCAG", "binding signal": "8180 fluorescence intensity (a.u.)"}, {"sequence": "AGTAGCAGAGGTCGTTTTGTTTTGATTTTTTTTAACTTTACGGAGTCACCTAGTGCAG", "binding signal": "8590 fluorescence intensity (a.u.)"}, {"sequence": "AGGTGGGGTCTGGTGAATTCTACCTGTCTATTCCAATGACCGGAGTCACCTAGTGCAG", "binding signal": "8040 fluorescence intensity (a.u.)"}, {"sequence": "ACTGATTGTCCAGCGCTATTCTGTTATGTGTGATTTTAACCGGAGTCACCTAGTGCAG", "binding signal": "10300 fluorescence intensity (a.u.)"}, {"sequence": "TGTGAAGTCGTTGCTTATTAGTTGTCCCGAATTATTAACCCGGAGTCACCTAGTGCAG", "binding signal": "8040 fluorescence intensity (a.u.)"}, {"sequence": "ATTTTATTTATTTTTAAGCTCTTGTTCATATTGTTCAATTCGGAGTCACCTAGTGCAG", "binding signal": "8060 fluorescence intensity (a.u.)"}, {"sequence": "GTCTCATCCCTGTAATCCCTGTTCTAGTGTTCTGTTGAAACGGAGTCACCTAGTGCAG", "binding signal": "10400 fluorescence intensity (a.u.)"}, {"sequence": "CTCTCGCGCGAGATGTCCGTGACTCTCTTTTCGTTTACACCGGAGTCACCTAGTGCAG", "binding signal": "8420 fluorescence intensity (a.u.)"}, {"sequence": "CCGGGTGTCATATTTGCAGTCCTTCATCTGAACCGCTAAGCGGAGTCACCTAGTGCAG", "binding signal": "10800 fluorescence intensity (a.u.)"}, {"sequence": "TCATATCCGACGTTTGACCGTTCATCTTATTTGAAAATTTCGGAGTCACCTAGTGCAG", "binding signal": "10500 fluorescence intensity (a.u.)"}, {"sequence": "ACTTGTAGAGGTGTGTCATCTAGGTCCCTAAACTCTCAAACGGAGTCACCTAGTGCAG", "binding signal": "10100 fluorescence intensity (a.u.)"}, {"sequence": "TGGGCTGAAGTTGTTTGTAGCGCATCTGTCATCTGTCTCGCGGAGTCACCTAGTGCAG", "binding signal": "10500 fluorescence intensity (a.u.)"}]}]}
